This is an account of results in patent US5126227A, “High contrast photographic elements containing ballasted hydrophobic isothioureas” (priority 1990, dated 1992).

A short description of data set [1]: Sensitometry (speed, practical density point/shoulder density) of nucleated silver halide film versus control without isothiourea. Conditions: for Delta PDP (practical density point): Test PDP - Control PDP, density at 0.4 log E past speed point; for Delta Log Speed: versus control. The method, then:
(§1) Each coating used in obtaining the data provided in these examples was prepared on a polyester support, using a monodispersed 0.24 μm AgBrI (2.5 mol % iodide) iridium-doped emulsion at 3.51 g/m^2 Ag, 2.54 g gel/m^2, and 1.08 g latex/m^2 where the latex is a copolymer of methyl acrylate, 2-acrylamido-2-methylpropane sulfonic acid, and 2-acetoacetoxyethylmethylacrylate. The silver halide emulsion was spectrally sensitized with 214 mg/Ag mol of anhydro-5,5'-dichloro-9-ethyl-3,3'-di-(3-sulfopropyl) oxacarbocyanine hydroxide, triethylene salt and the emulsion layer was overcoated with gelatin containing polymethylmethacrylate beads. The nucleating agent was added as a methanol solution to the emulsion melts at a level of 0.75 millimoles (mM) per mole of silver. The compound employed as the nucleating agent is represented by the formula: [drawing 24]
(§2) An "incorporated booster" was added as a methanol solution in an amount of 2 grams per mole of silver. The compound employed as the "incorporated booster" is represented by the formula: [drawing 25] where Pr represents n-propyl.
(§3) Coatings were exposed for five seconds to a 3000° K. tungsten light source and processed for 1 minute at 35° C. in the developer solution.
(§4) To prepare the developer solution, a concentrate was prepared from the following ingredients:
(§5) The concentrate was diluted at a ratio of one part of concentrate to two parts of water to produce a working strength developing solution with a pH of 10.5.
(§6) An electronic image analyzer was used to scan processed unexposed samples and count the number of pepper fog spots (>10 micrometer diameter) contained in an area of 600 square millimeters. Standard sensitometry exposures were processed and analyzed to monitor speed and shoulder density effects.
(§7) In each of examples 1, 6, 7 and 8, the isothiourea was employed in the form of the free base, in examples 3, 4, 5, 9, 10, 11, 12, 13, 14, 15, 16 and 17 in the form of the hydrobromide salt, and in example 2 in the form of the dihydrochloride salt. In comparative tests A to D, the isothiourea was employed in the form of the hydrobromide salt and in comparative tests E to H in the form of the free base.
(§8) Sensitometry parameters are expressed in Table I in terms of the change produced by incorporation of the isothiourea compound versus the control which contained no isothiourea compound and was processed under identical conditions. Values are reported for speed, practical density point (PDP) and pepper fog (PF). Therefore, the changes in speed, practical density point and pepper fog produced by the isothiourea compound are directly recorded in the table. By definition, the delta log speed, delta PDP and delta log PF for the control are zero.

A short description of data set [2]: Pepper fog spot count by electronic image analyzer on processed unexposed samples. As to conditions: versus control; for Delta Log PF (pepper fog): spots >10 micrometer in 600 square millimeters. The method, then:
as §1, §2, §3, §4, §5, §6, §7, §8

Data set [3] in a line: Image spread: rate of halftone dot diameter growth during development. Conditions: first 60 seconds of development, control 0.68. The method, then: as §1, §2, §3, §4, §5
Certain of the films were analyzed for the effect upon image spread of the incorporated isothiourea compound. The rate of change of halftone dot diameter with processing time was determined by monitoring the change in integrated density of a contact-exposed 10% tint pattern during the first 60 seconds of development and converting the integrated density to equivalent dot size.

The mark [4] stands for this setting: 1.0 millimoles isothiourea per mole of silver.
The mark [5] stands for this setting: 1.0 millimoles per mole of silver.
Where [6] appears, read: 0.4 millimoles isothiourea per mole of silver.
Setting [7] is: 0.5 millimoles isothiourea per mole of silver.

“And” between values parts separate entries of the source, which are not always exact repeats. Equal entries are not always repeated.

As for `N=C(N)SCCCCCCCCCCC(=O)O` [Comparative test A, reference compound], in data set [1] (setting [4]), the “Delta PDP (practical density point)” value is on record as “+0.06” and the “Delta Log Speed” value is given as 0.00. Also, in data set [2] (setting [4]), the “Delta Log PF (pepper fog)” value is on record as -0.01.

Consider `CCCCSC(=N)N` [Comparative test B, reference compound], for which, in data set [1] (setting [4]), the “Delta PDP (practical density point)” value is -0.17 and the “Delta Log Speed” value is on record as -0.05. Besides, the “Delta Log PF (pepper fog)” value in data set [2] (setting [4]) was “+0.06”.

With `CCCCSC(=NCC)NCC` [Comparative test C, reference compound], in data set [1] (setting [4]), the “Delta PDP (practical density point)” value is given as -0.05 and the “Delta Log Speed” value is “+0.01”. Besides, in data set [2] (setting [4]), the “Delta Log PF (pepper fog)” value is on record as “+0.05”. Further, in data set [3] (setting [5]), the “Dot Growth Rate” value is on record as 0.62 micron/sec.

`CCCCN=C(NCCCC)SCCCC` [Comparative test D, reference compound]: in data set [1] (setting [4]), the “Delta PDP (practical density point)” value was “+0.27” and the “Delta Log Speed” value is “+0.02”. In addition, in data set [2] (setting [4]), the “Delta Log PF (pepper fog)” value was “+0.16”. The “Dot Growth Rate” value in data set [3] (setting [5]) amounted to 0.64 micron/sec.

With `N=C(N)SCCS(=O)(=O)O` [Comparative test E, reference compound], in data set [1] (setting [4]), the “Delta PDP (practical density point)” value was -0.10 and the “Delta Log Speed” value is 0.00. Besides, the “Delta Log PF (pepper fog)” value in data set [2] (setting [4]) was -0.45.

`N=C(N)SCCCS(=O)(=O)O` [Comparative test F, reference compound]: in data set [1] (setting [4]), the “Delta PDP (practical density point)” value is listed as “+0.08” and the “Delta Log Speed” value was “+0.02”. Also, the “Delta Log PF (pepper fog)” value in data set [2] (setting [4]) is listed as -0.04.

Turning to `N=C(N)SCCCCS(=O)(=O)O` [Comparative test G, reference compound], in data set [1] (setting [4]), the “Delta PDP (practical density point)” value is “+0.13” and the “Delta Log Speed” value was -0.01. The “Delta Log PF (pepper fog)” value in data set [2] (setting [4]) is -0.08.

With `CC(CCSC(=N)N)S(=O)(=O)O` (centres unmarked) [Comparative test H, reference compound], in data set [1] (setting [4]), the “Delta PDP (practical density point)” value is reported as “+0.15” and the “Delta Log Speed” value is listed as -0.01. In addition, the “Delta Log PF (pepper fog)” value in data set [2] (setting [4]) is reported as -0.12.

On to `CCCCOCCOCCOCCOCCSC(=N)N` [Example 1], for which, in data set [1] (setting [4]), the “Delta PDP (practical density point)” value is reported as -0.11 and the “Delta Log Speed” value was -0.01. Besides, the “Delta Log PF (pepper fog)” value in data set [2] (setting [4]) is given as -0.17. In addition, the “reduction of the number of pepper fog spots” value in data set [2] is reported as “about three”.

For the compound `CCCCN(CCCC)CCSC(=N)N` [Example 2], the figures for the “Delta PDP (practical density point)” value in data set [1] (setting [6]) and in data set [1] (setting [4]) were -0.29 and -0.36, respectively. Moreover, the results for the “Delta Log Speed” value in data set [1] (setting [6]) and in data set [1] (setting [4]) were -0.08 and -0.11, respectively. For the same compound, the figures for the “Delta Log PF (pepper fog)” value in data set [2] (setting [6]) and in data set [2] (setting [4]) were -0.87 and -2.04, respectively. The “reduction of the number of pepper fog spots” value in data set [2] is on record as “about one hundred”.

Regarding `CCCCCCCCSC(=N)N` [Example 3], in data set [1] (setting [4]), the “Delta PDP (practical density point)” value is reported as “+0.08” and the “Delta Log Speed” value worked out at 0.00. For the same compound, the “Delta Log PF (pepper fog)” value in data set [2] (setting [4]) is listed as -0.63. Further, the “Dot Growth Rate” value in data set [3] (setting [5]) worked out at 0.51 micron/sec.

Regarding `CCCCCCCCCCCCSC(=N)N` [Example 4], the “Delta PDP (practical density point)” value in data set [1] (setting [6]) is -0.09. Further, the “Delta Log Speed” value in data set [1] (setting [6]) is -0.04; in data set [1] (setting [4]), -0.03 and -0.08. Further, the “Delta Log PF (pepper fog)” value in data set [2] (setting [6]) is -0.56; in data set [2] (setting [4]), -1.46 and -1.16. In addition, in data set [3] (setting [5]), the “Dot Growth Rate” value was determined as 0.40 micron/sec.

As to `CCOC(=O)CCCCCCCCCCSC(=N)N` [Example 5], in data set [1] (setting [4]), the “Delta PDP (practical density point)” value is “+0.33” and the “Delta Log Speed” value is reported as -0.05. Besides, in data set [2] (setting [4]), the “Delta Log PF (pepper fog)” value was -0.79.

For `CCCCCCOCCOCCOCCOCCSC(=N)N` [Example 6], in data set [1] (setting [4]), the “Delta PDP (practical density point)” value is recorded as -0.24 and the “Delta Log Speed” value is -0.05. The “Delta Log PF (pepper fog)” value in data set [2] (setting [4]) is -0.41.

Regarding `CCCCCCCCOCCOCCOCCOCCSC(=N)N` [Example 7], in data set [1] (setting [4]), the “Delta PDP (practical density point)” value is listed as -0.27 and the “Delta Log Speed” value is on record as -0.02. Moreover, the “Delta Log PF (pepper fog)” value in data set [2] (setting [4]) is -0.58.

As to `CCCCCCCCCCOCCOCCOCCOCCSC(=N)N` [Example 8], in data set [1] (setting [4]), the “Delta PDP (practical density point)” value was -0.43 and the “Delta Log Speed” value is on record as -0.03. For the same compound, the “Delta Log PF (pepper fog)” value in data set [2] (setting [4]) is listed as -0.47.

For the compound `N=C(N)SCc1c(Cl)cccc1Cl` [Example 9], in data set [1] (setting [4]), the “Delta PDP (practical density point)” value is on record as “+0.25” and the “Delta Log Speed” value was -0.02. Further, in data set [2] (setting [4]), the “Delta Log PF (pepper fog)” value is -0.52. For the same compound, the “Dot Growth Rate” value in data set [3] (setting [5]) is reported as 0.47 micron/sec.

Take `CC(C)(C)c1ccc(CSC(=N)N)cc1` [Example 10]: in data set [1] (setting [4]), the “Delta PDP (practical density point)” value is listed as “+0.01” and the “Delta Log Speed” value is -0.02. For the same compound, the “Delta Log PF (pepper fog)” value in data set [2] (setting [4]) is on record as -0.55. For the same compound, the “Dot Growth Rate” value in data set [3] (setting [5]) was determined as 0.53 micron/sec.

Turning to `Cc1cc(C)c(S(=O)(=O)NCCSC(=N)N)c(C)c1` [Example 11], in data set [1] (setting [4]), the “Delta PDP (practical density point)” value is “+0.12” and the “Delta Log Speed” value was -0.07. The “Delta Log PF (pepper fog)” value in data set [2] (setting [4]) is on record as -0.65. The “Dot Growth Rate” value in data set [3] (setting [5]) is on record as 0.50 micron/sec.

With `Cc1cc(C)c(S(=O)(=O)NCCCSC(=N)N)c(C)c1` [Example 12], in data set [1] (setting [4]), the “Delta PDP (practical density point)” value is on record as -0.12 and the “Delta Log Speed” value is given as -0.04. Besides, the “Delta Log PF (pepper fog)” value in data set [2] (setting [4]) is listed as -0.49. In addition, the “Dot Growth Rate” value in data set [3] (setting [5]) was found to be 0.57 micron/sec.

With `CC(C)c1cc(C(C)C)c(S(=O)(=O)NCCSC(=N)N)c(C(C)C)c1` [Example 13], the “Delta PDP (practical density point)” value in data set [1] (setting [6]) is listed as “+0.02”. In addition, the “Delta Log Speed” value in data set [1] (setting [6]) was -0.04; in data set [1] (setting [4]) it was -0.08 and -0.09. The “Delta Log PF (pepper fog)” value in data set [2] (setting [6]) was -0.46; in data set [2] (setting [4]), -1.18 and -1.07. Moreover, in data set [3] (setting [5]), the “Dot Growth Rate” value is on record as 0.47 micron/sec.

For the compound `CC(C)c1cc(C(C)C)c(S(=O)(=O)NCCCSC(=N)N)c(C(C)C)c1` [Example 14], the “Delta PDP (practical density point)” value was -0.11 in data set [1] (setting [6]) and “+0.11” in data set [1] (setting [4]). Besides, the “Delta Log Speed” value in data set [1] (setting [6]) is given as -0.05; in data set [1] (setting [4]) it was -0.09. The “Delta Log PF (pepper fog)” value in data set [2] (setting [6]) is -0.43; in data set [2] (setting [4]) it was -0.96. The “Dot Growth Rate” value in data set [3] (setting [5]) was 0.50 micron/sec.

Consider `N=C(N)SCCCCCCCCCCSC(=N)N` [Example 15], for which, in data set [1] (setting [7]), the “Delta PDP (practical density point)” value is on record as “+0.23” and the “Delta Log Speed” value is recorded as -0.05. Moreover, in data set [2] (setting [7]), the “Delta Log PF (pepper fog)” value is on record as -0.57. In data set [3] (0.5 millimoles per mole of silver), the “Dot Growth Rate” value is 0.51 micron/sec.

As for `CCCCCCCCCCCCCCCCSC(=N)N` [Example 16], in data set [1] (setting [4]), the “Delta PDP (practical density point)” value is -0.18 and the “Delta Log Speed” value is -0.07. Further, the “Delta Log PF (pepper fog)” value in data set [2] (setting [4]) is recorded as -1.46.

Regarding `N=C(N)SCCCCCCCCCCCCSC(=N)N` [Example 17], in data set [1] (setting [7]), the “Delta PDP (practical density point)” value is -0.07 and the “Delta Log Speed” value is -0.04. For the same compound, in data set [2] (setting [7]), the “Delta Log PF (pepper fog)” value is -0.59.
